PubChem BioAssay AID1259405 | NCATS – 2018
Purpose: 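Silenced genes that increase secreted GFP made by CHO cells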 (primary screen). Cells: Chinese hamster CHO-K1 ovary cells with stable secreted eGFP expression. Reagents: single siRNA against mouse genes, 0.8 pmol siRNA per well (2 µl of 400 nM stock). Duration: 3 days. Read-out: 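Per-well intracellular GFP measured by laser scanning cytometry, plus viability from ATP luminescence, each relative to plate median of non-targeting control wells, in %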. Scale: GFP, % of control: higher = more GFP per well, higher productivity; viability (ATP), % of control: higher = more viable cells (more ATP). Active means: 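a knock-down is called active if GFP reaches 120% or more of non-targeting control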.
The whole screen tested about 50,000 reagents; below is an unselected part. Of all reagents, about 4,000 (8%) got an active call. 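Mouse siRNA library applied to hamster cells; one well for each siRNA.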 Entries without a mark were called inactive. The numbers tell different reagents against one gene apart.

After knock-down of Rnd1 (Rho family GTPase 1) #1, the screen gave GFP, % of control 98.4; viability (ATP), % of control 86.9.
Knock-down of Rnd1 (Rho family GTPase 1) #2 gave: GFP, % of control 208 (active); viability (ATP), % of control 126.
Rnd1 (Rho family GTPase 1) #3 showed GFP, % of control 82.1; viability (ATP), % of control 76.1.
With knock-down of Cfap43 (cilia and flagella associated protein 43) #1, the screen gave GFP, % of control 72.6; viability (ATP), % of control 98.
Silencing of Cfap43 (cilia and flagella associated protein 43) #2 resulted in: GFP, % of control 65.9; viability (ATP), % of control 89.1.
Cfap43 (cilia and flagella associated protein 43) #3 showed GFP, % of control 92.5; viability (ATP), % of control 112.
With knock-down of Ppp1r9a (protein phosphatase 1, regulatory subunit 9A) #1 the results were GFP, % of control 95.9; viability (ATP), % of control 87.3.
Ppp1r9a (protein phosphatase 1, regulatory subunit 9A) #2 showed GFP, % of control 161 (active); viability (ATP), % of control 20.5.
For Ppp1r9a (protein phosphatase 1, regulatory subunit 9A) #3 the deposit lists GFP, % of control 71.3; viability (ATP), % of control 88.5.
Knock-down of Rph3al (rabphilin 3A-like (without C2 domains)) #1 resulted in: GFP, % of control 65.5; viability (ATP), % of control 52.9.
Knock-down of Rph3al (rabphilin 3A-like (without C2 domains)) #2 came out at: GFP, % of control 91.3; viability (ATP), % of control 69.5.
Msantd4 #1 showed GFP, % of control 46.3; viability (ATP), % of control 44.1.
With knock-down of Msantd4 #2, the screen gave GFP, % of control 74.3; viability (ATP), % of control 79.3.
After knock-down of Msantd4 #3, the screen gave GFP, % of control 100; viability (ATP), % of control 111.
Against Or51b17 (olfactory receptor family 51 subfamily B member 17) #1 the deposit lists GFP, % of control 66.1; viability (ATP), % of control 60.3.
Or51b17 (olfactory receptor family 51 subfamily B member 17) #2 scored GFP, % of control 73.7; viability (ATP), % of control 62.
For Or51b17 (olfactory receptor family 51 subfamily B member 17) #3, the entry reads GFP, % of control 52.4; viability (ATP), % of control 40.
Against Dusp28 (dual specificity phosphatase 28) #1, the entry reads GFP, % of control 76.5; viability (ATP), % of control 45.3.
Silencing of Dusp28 (dual specificity phosphatase 28) #2 gave: GFP, % of control 129 (active); viability (ATP), % of control 69.2.
After knock-down of Dusp28 (dual specificity phosphatase 28) #3 the results were GFP, % of control 80; viability (ATP), % of control 85.2.
After knock-down of Rpia (ribose 5-phosphate isomerase A) #1, the screen gave GFP, % of control 93.5; viability (ATP), % of control 101.
Against Rpia (ribose 5-phosphate isomerase A) #2, the values are GFP, % of control 90.8; viability (ATP), % of control 38.4.
Silencing of Rpia (ribose 5-phosphate isomerase A) #3 came out at: GFP, % of control 46.5; viability (ATP), % of control 66.5.
Ptgr3 (prostaglandin reductase 3) #1 showed GFP, % of control 79.4; viability (ATP), % of control 85.1.
With knock-down of Ptgr3 (prostaglandin reductase 3) #2, the record shows GFP, % of control 64.8; viability (ATP), % of control 50.4.
After knock-down of Ptgr3 (prostaglandin reductase 3) #3 the results were GFP, % of control 57.7; viability (ATP), % of control 63.2.
For Cdc37l1 (cell division cycle 37-like 1) #1 the deposit lists GFP, % of control 149 (active); viability (ATP), % of control 76.7.
Cdc37l1 (cell division cycle 37-like 1) #2 gave GFP, % of control 26; viability (ATP), % of control 22.4.
For Cdc37l1 (cell division cycle 37-like 1) #3 the deposit lists GFP, % of control 57.6; viability (ATP), % of control 62.
Against Edn1 (endothelin 1) #1, the entry reads GFP, % of control 48.7; viability (ATP), % of control 73.1.
Silencing of Edn1 (endothelin 1) #2 resulted in: GFP, % of control 61; viability (ATP), % of control 68.4.
Depletion of Edn1 (endothelin 1) #3 came out at: GFP, % of control 42; viability (ATP), % of control 69.3.
After knock-down of Tsr1 (TSR1 20S rRNA accumulation) #1 the results were GFP, % of control 89.2; viability (ATP), % of control 86.8.
Against Tsr1 (TSR1 20S rRNA accumulation) #2 the deposit lists GFP, % of control 73.5; viability (ATP), % of control 77.7.
Silencing of Tsr1 (TSR1 20S rRNA accumulation) #3 gave: GFP, % of control 26.5; viability (ATP), % of control 21.7.
After knock-down of Fuca1 (fucosidase, alpha-L- 1, tissue) #1 the results were GFP, % of control 70.6; viability (ATP), % of control 78.1.
Fuca1 (fucosidase, alpha-L- 1, tissue) #2 gave GFP, % of control 96; viability (ATP), % of control 84.5.
Knock-down of Fuca1 (fucosidase, alpha-L- 1, tissue) #3 came out at: GFP, % of control 82.3; viability (ATP), % of control 52.6.
With knock-down of Gm5533 (predicted gene 5533) #1, the record shows GFP, % of control 79; viability (ATP), % of control 80.3.
Silencing of Gm5533 (predicted gene 5533) #2 resulted in: GFP, % of control 97.8; viability (ATP), % of control 65.1.
For Gm5533 (predicted gene 5533) #3, the values are GFP, % of control 50.5; viability (ATP), % of control 43.8.
